Measurements: patent publication US9695193B2, “Inhibitors of Plasmodium falciparum equilibrative nucleoside transporter type I as anti-parasitic compounds” (The Trustees of Columbia University in the City of New York, priority 2013, dated 2017)

The chains behind the UniProt entries cited, without tags or fusion partners. Where a name states a change or a piece, a line headed by the entry shows the natural chain unless it says otherwise.
UniProt Q8IDM6: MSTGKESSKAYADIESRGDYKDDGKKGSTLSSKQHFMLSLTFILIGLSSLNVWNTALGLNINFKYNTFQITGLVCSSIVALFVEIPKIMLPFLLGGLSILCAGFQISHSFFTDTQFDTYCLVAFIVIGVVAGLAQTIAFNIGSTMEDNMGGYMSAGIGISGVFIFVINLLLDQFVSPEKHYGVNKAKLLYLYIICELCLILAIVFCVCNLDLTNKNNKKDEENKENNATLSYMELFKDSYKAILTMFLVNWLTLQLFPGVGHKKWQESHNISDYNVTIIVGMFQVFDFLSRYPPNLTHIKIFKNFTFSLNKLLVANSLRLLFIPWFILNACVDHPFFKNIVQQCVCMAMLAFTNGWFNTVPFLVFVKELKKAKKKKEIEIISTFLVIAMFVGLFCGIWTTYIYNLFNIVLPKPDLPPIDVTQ

Target: T1, PfENT1 (Plasmodium falciparum, UniProt Q8IDM6)
T1 construct: expressed in transfected cells; host or cells: fui1Δ yeast (Saccharomyces cerevisiae), co-expressing GFP
Format: cell-based
Conditions: primary HTS, compounds at 10 μM, 125 μM 5-FUrd
Source text: A yeast-based high throughput screening (HTS) assay was used to identify compounds that inhibit PfENT1. The compounds described in this application were identified by screening four commercially available, chemical compound libraries obtained from Dr. Donald Landry's laboratory (Department of Medicine, Columbia University). These libraries contain approximately 80,000 unique chemical entities. Derivatives of the some of the initial hits were purchased from ChemBridge Corporation (11199 Sorrento Valley Road, Suite 206, San Diego, Calif., 92121) and other novel chemical entities have been synthesized and tested as well.
In the primary screen the compounds were tested at a concentration of 10 μM. Hits were identified by the growth of fui1Δ yeast expressing PfENT1 and Green Fluorescent Protein (GFP) in the presence of the cytotoxic nucleoside 5-fluorouridine (5-FUrd). 5-FUrd is transported by PfENT1. PfENT1 expressing fui1Δ yeast will only grow in the presence of 125 μM 5-FUrd if a PfENT1 inhibitor blocks the uptake of 5-FUrd into the yeast. Significant yeast growth in the HTS in 384 well plates was determined by two criteria: 1) turbidity as determined by the optical density at 620 nm (OD620) and 2) GFP fluorescence intensity. Positive responses were signal intensities greater than four standard deviations above the mean of the negative growth control wells. […]

CNCCC(Oc1ccc(C(F)(F)F)cc1)c1ccccc1.Cl (stereo not shown) [compound 98]
Avg Normalized % maximal activity: 4.84%
